This data set deals with T1, hPolεCD (E. coli), catalytic domain of DNA polymerase ε p261, CysX [4Fe-4S] cluster (63% iron) (human) (UniProt Q07864).
T1 sequence (looked up): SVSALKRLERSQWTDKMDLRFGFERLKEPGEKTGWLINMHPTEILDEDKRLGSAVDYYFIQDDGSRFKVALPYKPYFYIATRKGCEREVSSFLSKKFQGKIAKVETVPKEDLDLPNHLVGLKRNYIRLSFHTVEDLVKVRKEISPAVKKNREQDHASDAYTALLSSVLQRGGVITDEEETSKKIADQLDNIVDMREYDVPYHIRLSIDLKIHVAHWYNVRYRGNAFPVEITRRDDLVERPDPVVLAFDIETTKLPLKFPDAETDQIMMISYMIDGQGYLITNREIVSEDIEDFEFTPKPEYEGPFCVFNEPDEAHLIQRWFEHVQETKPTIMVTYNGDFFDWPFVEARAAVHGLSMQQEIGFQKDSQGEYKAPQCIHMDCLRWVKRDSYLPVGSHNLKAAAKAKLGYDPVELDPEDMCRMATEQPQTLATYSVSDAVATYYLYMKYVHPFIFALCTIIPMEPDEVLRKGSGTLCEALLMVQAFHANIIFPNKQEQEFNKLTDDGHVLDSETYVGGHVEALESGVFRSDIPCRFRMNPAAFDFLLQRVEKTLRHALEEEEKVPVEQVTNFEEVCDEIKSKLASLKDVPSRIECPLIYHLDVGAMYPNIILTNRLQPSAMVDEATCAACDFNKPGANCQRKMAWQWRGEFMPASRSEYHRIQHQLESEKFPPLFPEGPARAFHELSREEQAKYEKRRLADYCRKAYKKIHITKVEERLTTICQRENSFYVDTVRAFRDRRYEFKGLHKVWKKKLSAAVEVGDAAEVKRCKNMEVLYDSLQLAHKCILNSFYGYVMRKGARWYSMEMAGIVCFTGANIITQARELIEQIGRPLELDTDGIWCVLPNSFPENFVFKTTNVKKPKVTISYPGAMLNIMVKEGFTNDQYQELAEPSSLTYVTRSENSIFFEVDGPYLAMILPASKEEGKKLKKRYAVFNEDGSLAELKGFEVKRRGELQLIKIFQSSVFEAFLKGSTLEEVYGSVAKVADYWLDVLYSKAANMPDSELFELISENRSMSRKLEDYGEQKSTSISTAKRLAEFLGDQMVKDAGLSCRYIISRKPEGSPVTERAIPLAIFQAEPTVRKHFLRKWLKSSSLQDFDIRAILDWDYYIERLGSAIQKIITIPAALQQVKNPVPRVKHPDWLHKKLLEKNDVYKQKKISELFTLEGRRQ
In words: BLI. The conditions noted are these: 150 mM NaCl, active enzyme concentration, kon 168 mM-1 s-1, koff 542e-3 s-1; 3'-dideoxycytidine on primer (strand 2); BLI: 30 mM Tris-Hepes pH 7.8, 100 or 150 mM NaCl, 2 mM TCEP, 0.002% Tween 20, 23 °C; recombinant protein; residues 28-1194; label: 5'-biotin-TEG on template (strand 1).

For at least one entry, the source does not settle the construct or the ends of the probe. Protein sequences can lack the tags named with them.

Broadly, the Kd is the equilibrium constant for the complex coming apart.

Take “AATACATAAGCGCTCCAGGCAAT / GCCTGGAGCGC [Octet 23-mer template / 11-mer 3'-ddC primer]”: the Kd was determined as 3.26 µM.
